Assay results published in PMC3709894.
Results are given in words; binding and its absence hold for the method and conditions named. In cells and extracts the contact can be indirect. Binding calls can cover weak binding; strength is not graded here. Tags and fused reporters may be left off the sequences shown.

Target: T1, Flag-Rad21 triple mutant (TM) L385A F389A T390A (human) (UniProt O60216)
T1 sequence: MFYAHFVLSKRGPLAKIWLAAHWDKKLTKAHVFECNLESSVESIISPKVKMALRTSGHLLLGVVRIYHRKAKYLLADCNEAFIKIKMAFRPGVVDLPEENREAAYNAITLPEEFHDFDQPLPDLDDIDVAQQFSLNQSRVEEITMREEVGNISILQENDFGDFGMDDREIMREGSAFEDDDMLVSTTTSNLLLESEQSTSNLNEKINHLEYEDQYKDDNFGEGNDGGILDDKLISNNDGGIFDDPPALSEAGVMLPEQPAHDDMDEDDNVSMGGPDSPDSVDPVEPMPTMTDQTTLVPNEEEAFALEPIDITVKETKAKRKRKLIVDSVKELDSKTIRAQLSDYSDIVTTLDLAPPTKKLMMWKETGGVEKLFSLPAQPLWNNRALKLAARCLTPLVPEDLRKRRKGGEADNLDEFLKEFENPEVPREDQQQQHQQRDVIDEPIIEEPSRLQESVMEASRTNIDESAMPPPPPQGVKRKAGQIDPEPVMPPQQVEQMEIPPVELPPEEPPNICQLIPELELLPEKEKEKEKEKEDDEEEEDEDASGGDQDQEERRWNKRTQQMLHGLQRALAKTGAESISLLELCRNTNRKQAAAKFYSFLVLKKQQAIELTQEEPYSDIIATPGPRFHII
Assay: co-IP; 293 T cells transfected with pFlag CMV2 Rad21 constructs; IP of Flag-Rad21 (Flag mAb agarose beads) from whole cell lysate, blots of endogenous cohesin subunits and associated proteins

“endogenous Pds5 (human (endogenous in 293 T))” was tested, and the binding was “binds”.
